# Source: the supplement of paper PMC12819154, “High-throughput peptide-centric local stability assay extends protein–ligand identification to membrane proteins, tissues and bacteria” (Nature Structural & Molecular Biology, 2025)
# Amino acid sequences for entries named in this document (tags omitted). A change or cut given only in a name is not applied to a line headed by its entry.
# UniProt P15261: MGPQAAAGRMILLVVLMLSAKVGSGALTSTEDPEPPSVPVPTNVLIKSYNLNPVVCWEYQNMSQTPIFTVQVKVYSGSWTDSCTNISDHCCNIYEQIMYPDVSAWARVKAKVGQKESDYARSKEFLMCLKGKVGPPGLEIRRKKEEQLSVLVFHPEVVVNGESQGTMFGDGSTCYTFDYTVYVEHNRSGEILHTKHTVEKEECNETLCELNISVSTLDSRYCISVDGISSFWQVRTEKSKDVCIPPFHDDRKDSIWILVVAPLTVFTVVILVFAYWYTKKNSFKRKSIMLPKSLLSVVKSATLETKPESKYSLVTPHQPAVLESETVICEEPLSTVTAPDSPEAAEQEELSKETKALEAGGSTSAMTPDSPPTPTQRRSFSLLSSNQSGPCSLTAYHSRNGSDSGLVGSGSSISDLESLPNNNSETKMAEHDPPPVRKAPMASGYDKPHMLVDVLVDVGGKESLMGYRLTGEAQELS
# UniProt P14901: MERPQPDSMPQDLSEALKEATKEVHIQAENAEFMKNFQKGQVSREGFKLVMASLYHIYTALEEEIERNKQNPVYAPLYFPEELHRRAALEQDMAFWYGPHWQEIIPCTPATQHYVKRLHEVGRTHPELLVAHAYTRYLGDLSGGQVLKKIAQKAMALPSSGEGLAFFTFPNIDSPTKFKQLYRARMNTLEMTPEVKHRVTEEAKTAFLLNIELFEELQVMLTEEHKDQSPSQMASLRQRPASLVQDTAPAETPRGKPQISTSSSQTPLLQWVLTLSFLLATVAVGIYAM
# UniProt P05977, whole entry: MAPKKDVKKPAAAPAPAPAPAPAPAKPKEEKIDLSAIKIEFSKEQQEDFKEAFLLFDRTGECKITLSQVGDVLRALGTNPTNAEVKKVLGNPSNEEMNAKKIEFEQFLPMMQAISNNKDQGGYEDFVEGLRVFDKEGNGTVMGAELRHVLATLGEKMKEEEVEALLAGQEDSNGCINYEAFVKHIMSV
# UniProt P11438: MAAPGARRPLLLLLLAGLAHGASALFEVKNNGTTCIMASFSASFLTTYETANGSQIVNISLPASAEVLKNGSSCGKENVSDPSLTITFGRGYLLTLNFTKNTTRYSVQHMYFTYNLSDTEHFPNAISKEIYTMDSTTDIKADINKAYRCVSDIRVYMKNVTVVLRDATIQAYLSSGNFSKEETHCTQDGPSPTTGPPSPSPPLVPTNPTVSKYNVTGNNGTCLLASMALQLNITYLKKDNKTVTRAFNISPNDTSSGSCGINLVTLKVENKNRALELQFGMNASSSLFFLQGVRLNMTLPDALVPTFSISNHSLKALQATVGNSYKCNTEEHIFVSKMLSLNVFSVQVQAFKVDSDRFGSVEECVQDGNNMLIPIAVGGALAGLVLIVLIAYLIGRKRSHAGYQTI
# UniProt P11031: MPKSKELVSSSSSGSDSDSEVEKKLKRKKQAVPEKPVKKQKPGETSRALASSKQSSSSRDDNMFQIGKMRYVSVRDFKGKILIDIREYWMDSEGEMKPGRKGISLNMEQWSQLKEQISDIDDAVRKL
# UniProt P13705: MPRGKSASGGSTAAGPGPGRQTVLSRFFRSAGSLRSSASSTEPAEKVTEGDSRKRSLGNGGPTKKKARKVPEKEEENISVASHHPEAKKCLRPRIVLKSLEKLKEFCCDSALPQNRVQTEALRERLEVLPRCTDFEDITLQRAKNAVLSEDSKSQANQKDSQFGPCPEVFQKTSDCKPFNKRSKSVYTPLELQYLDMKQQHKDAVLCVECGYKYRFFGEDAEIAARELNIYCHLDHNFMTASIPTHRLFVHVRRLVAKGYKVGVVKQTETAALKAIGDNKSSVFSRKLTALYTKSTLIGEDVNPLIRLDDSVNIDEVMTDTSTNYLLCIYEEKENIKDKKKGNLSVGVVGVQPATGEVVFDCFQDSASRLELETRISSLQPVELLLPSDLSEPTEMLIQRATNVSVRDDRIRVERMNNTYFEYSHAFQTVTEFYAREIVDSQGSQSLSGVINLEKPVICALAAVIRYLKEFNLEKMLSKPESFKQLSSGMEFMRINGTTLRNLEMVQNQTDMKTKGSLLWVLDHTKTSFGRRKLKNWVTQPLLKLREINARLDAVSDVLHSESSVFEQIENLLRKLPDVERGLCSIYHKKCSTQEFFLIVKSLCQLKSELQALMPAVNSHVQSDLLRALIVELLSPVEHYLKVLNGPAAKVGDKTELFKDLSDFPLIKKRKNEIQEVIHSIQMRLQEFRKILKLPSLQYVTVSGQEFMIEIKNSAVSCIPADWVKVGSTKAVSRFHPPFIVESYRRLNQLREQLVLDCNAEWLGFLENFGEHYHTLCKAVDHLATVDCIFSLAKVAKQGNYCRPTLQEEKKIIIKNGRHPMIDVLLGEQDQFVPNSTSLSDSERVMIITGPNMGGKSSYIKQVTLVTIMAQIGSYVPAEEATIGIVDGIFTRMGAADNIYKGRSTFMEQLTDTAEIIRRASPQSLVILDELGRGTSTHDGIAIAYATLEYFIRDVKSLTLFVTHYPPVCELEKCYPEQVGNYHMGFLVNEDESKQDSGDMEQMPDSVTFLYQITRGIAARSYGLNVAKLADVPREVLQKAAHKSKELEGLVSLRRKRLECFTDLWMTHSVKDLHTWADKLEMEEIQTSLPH
# UniProt P04441: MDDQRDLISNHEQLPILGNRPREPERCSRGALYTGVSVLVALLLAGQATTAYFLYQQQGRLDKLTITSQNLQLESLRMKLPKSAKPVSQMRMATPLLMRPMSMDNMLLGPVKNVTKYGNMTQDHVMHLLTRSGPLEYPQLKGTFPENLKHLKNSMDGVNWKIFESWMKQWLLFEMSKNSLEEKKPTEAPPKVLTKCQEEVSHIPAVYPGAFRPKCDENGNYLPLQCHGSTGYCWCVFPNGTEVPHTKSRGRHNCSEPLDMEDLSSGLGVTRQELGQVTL
# UniProt P04184: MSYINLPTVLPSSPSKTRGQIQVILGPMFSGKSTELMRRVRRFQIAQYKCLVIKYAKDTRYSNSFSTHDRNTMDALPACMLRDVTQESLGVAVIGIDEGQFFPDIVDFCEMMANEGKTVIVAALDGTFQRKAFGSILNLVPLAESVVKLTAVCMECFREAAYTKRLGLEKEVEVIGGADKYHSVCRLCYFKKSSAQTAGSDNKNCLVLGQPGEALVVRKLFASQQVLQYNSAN
# UniProt P0C7L0: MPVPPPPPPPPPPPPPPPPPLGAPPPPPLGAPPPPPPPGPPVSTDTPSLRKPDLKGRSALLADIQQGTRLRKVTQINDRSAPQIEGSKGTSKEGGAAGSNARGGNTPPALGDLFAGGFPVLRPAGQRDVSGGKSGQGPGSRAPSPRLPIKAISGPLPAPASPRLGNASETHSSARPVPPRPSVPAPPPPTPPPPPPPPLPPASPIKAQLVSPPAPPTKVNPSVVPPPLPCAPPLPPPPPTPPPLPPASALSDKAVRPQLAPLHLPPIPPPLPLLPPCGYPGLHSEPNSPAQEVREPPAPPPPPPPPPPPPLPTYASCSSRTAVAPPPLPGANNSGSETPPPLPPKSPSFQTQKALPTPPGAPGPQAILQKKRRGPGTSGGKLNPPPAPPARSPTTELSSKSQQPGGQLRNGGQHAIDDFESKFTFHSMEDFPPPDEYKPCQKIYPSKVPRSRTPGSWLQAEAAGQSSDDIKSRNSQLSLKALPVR
# UniProt O88967: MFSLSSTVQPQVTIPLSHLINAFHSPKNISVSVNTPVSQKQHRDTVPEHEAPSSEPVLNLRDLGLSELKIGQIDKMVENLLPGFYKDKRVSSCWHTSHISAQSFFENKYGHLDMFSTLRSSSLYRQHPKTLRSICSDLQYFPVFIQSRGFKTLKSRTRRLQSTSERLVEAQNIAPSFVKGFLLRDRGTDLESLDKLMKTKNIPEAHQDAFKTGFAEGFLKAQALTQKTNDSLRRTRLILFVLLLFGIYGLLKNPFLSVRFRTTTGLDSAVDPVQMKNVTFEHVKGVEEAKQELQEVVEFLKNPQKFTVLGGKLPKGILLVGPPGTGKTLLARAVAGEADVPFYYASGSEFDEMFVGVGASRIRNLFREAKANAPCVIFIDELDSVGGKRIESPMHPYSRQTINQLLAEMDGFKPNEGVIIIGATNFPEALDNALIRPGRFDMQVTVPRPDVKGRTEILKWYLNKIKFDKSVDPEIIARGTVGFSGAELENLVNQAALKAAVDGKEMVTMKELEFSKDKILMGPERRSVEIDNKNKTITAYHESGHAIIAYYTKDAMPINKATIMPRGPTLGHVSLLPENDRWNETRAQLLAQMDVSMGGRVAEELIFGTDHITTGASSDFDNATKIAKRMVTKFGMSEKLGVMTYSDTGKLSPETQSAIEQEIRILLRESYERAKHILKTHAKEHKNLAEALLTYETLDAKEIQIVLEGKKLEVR
# UniProt P12246: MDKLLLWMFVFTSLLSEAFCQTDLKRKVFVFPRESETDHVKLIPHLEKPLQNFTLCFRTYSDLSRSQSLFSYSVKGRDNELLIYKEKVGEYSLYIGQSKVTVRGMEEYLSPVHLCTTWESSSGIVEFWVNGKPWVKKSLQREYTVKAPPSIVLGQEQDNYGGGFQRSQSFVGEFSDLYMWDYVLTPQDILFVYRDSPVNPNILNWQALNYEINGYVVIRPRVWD
# UniProt O89001: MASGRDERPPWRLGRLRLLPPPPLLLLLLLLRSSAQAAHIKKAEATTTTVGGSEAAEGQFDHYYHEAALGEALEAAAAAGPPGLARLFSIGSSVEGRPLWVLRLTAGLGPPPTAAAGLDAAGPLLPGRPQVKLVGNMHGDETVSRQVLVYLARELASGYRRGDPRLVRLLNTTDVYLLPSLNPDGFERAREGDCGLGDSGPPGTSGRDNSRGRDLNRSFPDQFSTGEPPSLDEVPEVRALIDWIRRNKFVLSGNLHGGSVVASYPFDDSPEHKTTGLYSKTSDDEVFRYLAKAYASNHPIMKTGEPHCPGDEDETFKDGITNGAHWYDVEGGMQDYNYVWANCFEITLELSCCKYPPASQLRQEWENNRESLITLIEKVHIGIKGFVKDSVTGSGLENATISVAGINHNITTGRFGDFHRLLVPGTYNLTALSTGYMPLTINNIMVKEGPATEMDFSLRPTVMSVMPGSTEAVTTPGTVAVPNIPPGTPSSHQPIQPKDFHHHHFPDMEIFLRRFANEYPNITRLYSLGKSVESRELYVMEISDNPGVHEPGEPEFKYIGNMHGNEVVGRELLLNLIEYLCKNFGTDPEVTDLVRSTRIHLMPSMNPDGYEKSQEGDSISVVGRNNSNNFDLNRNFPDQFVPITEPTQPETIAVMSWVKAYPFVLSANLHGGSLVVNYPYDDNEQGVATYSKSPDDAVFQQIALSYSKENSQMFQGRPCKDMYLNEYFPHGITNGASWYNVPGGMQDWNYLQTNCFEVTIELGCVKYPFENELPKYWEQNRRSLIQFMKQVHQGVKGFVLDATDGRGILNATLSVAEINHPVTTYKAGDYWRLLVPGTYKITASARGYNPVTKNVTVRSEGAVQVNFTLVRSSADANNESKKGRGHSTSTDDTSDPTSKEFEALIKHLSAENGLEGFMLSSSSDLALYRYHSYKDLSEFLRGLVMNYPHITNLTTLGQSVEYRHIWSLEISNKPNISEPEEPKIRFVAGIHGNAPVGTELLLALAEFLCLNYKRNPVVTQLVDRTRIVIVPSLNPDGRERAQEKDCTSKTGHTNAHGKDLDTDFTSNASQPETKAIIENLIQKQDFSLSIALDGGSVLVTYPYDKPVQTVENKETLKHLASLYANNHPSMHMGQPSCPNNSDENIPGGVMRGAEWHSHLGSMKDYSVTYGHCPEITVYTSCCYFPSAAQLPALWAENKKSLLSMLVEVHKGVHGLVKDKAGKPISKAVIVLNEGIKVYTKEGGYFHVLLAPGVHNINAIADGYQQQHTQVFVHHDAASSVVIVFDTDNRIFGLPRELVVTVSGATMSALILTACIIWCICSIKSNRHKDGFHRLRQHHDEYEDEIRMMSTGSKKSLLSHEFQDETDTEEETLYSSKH
# UniProt P14733: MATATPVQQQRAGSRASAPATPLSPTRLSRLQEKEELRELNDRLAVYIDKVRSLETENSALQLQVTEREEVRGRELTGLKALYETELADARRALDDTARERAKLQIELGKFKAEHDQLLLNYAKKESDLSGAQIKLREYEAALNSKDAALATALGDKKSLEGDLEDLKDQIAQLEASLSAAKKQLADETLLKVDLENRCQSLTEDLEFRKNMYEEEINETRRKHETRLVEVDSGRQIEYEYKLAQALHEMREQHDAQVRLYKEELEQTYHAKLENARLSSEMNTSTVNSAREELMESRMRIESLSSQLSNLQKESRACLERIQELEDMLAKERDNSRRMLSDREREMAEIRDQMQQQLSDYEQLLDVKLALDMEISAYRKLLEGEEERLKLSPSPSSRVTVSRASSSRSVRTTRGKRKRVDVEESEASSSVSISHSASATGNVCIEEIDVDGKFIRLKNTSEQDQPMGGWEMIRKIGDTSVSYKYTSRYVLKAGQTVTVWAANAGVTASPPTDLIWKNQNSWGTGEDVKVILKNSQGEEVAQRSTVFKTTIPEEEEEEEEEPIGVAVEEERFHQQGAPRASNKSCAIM
# The list shows a part of the results. Most entries show no effect beyond the scatter of the controls.
# Compound: CN[C@@H]1C[C@H]2O[C@@](C)([C@@H]1OC)n1c3ccccc3c3c4c(c5c6ccccc6n2c5c31)C(=O)NC4 [staurosporine]
# Assay: log2 fold change of tryptic peptide abundance, ligand vs vehicle (limited proteolysis) (log2 ratio); higher = more trypsin-susceptible (destabilized)
# Conditions: ligand concentration: 20 uM; sample: mouse liver crude lysate; replicate design: treated separately
row,Target,log2 fold change
1,"UniProt P14602 (peptide sequence: EGVVEITGK, peptide start residue: 119)",-0.152
2,"UniProt P15261 (peptide sequence: MAEHDPPPVR, peptide start residue: 428)",0.239
3,"UniProt P14901 (peptide sequence: YLGDLSGGQVLKK, peptide start residue: 137)",-0.739
4,"UniProt P0DOV1 (peptide sequence: SQPQNQNIPR, peptide start residue: 211)",0.0893
5,"UniProt P05977 (peptide sequence: KPAAAPAPAPAPAPAPAKPK, peptide start residue: 9)",0.23
6,"UniProt P11416 (peptide sequence: NMVYTCHR, peptide start residue: 119)",-0.185
7,"UniProt P11438 (peptide sequence: SHAGYQTI, peptide start residue: 399)",0.266
8,"UniProt O89032 (peptide sequence: TSTLTRPK, peptide start residue: 513)",-0.555
9,"UniProt P11031 (peptide sequence: QAVPEKPVK, peptide start residue: 30)",-0.149
10,"UniProt P13705 (peptide sequence: SSASSTEPAEKVTEGDSR, peptide start residue: 36)",-0.489
11,"UniProt O88951 (peptide sequence: RGDQLLSVNGVSVEGEHHEK, peptide start residue: 151)",-0.19
12,"UniProt P04441 (peptide sequence: DLISNHEQLPILGNRPR, peptide start residue: 6)",0.223
13,"UniProt P11983 (peptide sequence: YPVNSVNILKAHGR, peptide start residue: 190)",0.892
14,"UniProt O89019 (peptide sequence: KREEENK, peptide start residue: 596)",0.216
15,"UniProt P04184 (peptide sequence: YSNSFSTHDR, peptide start residue: 61)",0.089
16,"UniProt P11531 (peptide sequence: IEHYASR, peptide start residue: 3430)",-0.221
17,"UniProt P0C7L0 (peptide sequence: SAPQIEGSK, peptide start residue: 80)",-0.212
18,"UniProt P14152 (peptide sequence: KLSSAMSAAK, peptide start residue: 239)",-0.332
19,"UniProt P02468 (peptide sequence: HKQEADDIVR, peptide start residue: 1188)",-0.251
20,"UniProt O88967 (peptide sequence: TGFAEGFLK, peptide start residue: 212)",-0.168
21,"UniProt P13864 (peptide sequence: LHKEELSEEGYLAK, peptide start residue: 68)",-0.202
22,"UniProt P03893 (peptide sequence: MMTHQTK, peptide start residue: 313)",0.0455
23,"UniProt P12246 (peptide sequence: GRDNELLIYK, peptide start residue: 76)",0.233
24,"UniProt O89001 (peptide sequence: TSDDEVFR, peptide start residue: 281)",-0.281
25,"UniProt P15532 (peptide sequence: DRPFFTGLVK, peptide start residue: 57)",-0.258
26,"UniProt O88895 (peptide sequence: QTIFENLK, peptide start residue: 360)",-0.246
27,"UniProt P07356 (peptide sequence: KELPSALK, peptide start residue: 81)",-0.18
28,"UniProt P14733 (peptide sequence: LYKEELEQTYHAK, peptide start residue: 260)",-0.115

# A different layout for some results above:
row | Target | log2 fold change
3 | UniProt P14901 (peptide sequence: YLGDLSGGQVLKK, peptide start residue: 137) | -0.739
4 | UniProt P0DOV1 (peptide sequence: SQPQNQNIPR, peptide start residue: 211) | 0.0893
5 | UniProt P05977 (peptide sequence: KPAAAPAPAPAPAPAPAKPK, peptide start residue: 9) | 0.23
6 | UniProt P11416 (peptide sequence: NMVYTCHR, peptide start residue: 119) | -0.185
7 | UniProt P11438 (peptide sequence: SHAGYQTI, peptide start residue: 399) | 0.266
8 | UniProt O89032 (peptide sequence: TSTLTRPK, peptide start residue: 513) | -0.555
9 | UniProt P11031 (peptide sequence: QAVPEKPVK, peptide start residue: 30) | -0.149
